At least one result comes from cells or an extract, where the contact may be indirect. For part of these data: No signal at the amounts used counts as a negative. For part of these data: Where a protein sequence is shown, tags need not be part of it.
What was measured:
[1] = biological target: GATA-6 (Homo sapiens) (UniProt Q92908); experiment: EMSA; settings: protein in a lysate after overexpression; protein details: pCDNA1/Amp expression in COS1 cells; label: 5'-32P
[2] = test system: T1, ΔZF-GATA-6 del244-306 (Homo sapiens); experiment: EMSA; settings: zinc finger deletion unable to bind; protein in a lysate after overexpression; protein details: pCDNA1/Amp expression in COS1 cells; label: 5'-32P
T1 sequence: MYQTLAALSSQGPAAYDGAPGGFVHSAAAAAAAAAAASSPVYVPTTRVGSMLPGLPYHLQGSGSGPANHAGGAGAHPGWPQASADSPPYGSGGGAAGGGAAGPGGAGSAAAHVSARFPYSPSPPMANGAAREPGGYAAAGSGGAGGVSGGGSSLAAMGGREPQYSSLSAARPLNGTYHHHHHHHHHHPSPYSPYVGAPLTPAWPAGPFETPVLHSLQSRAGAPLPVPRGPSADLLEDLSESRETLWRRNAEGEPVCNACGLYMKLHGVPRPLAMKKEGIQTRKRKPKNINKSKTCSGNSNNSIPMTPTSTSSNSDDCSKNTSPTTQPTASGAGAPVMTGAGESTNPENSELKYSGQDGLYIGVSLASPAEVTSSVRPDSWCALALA

[3] = biological target: GATA-6 (Homo sapiens) (UniProt Q92908); experiment: competition with a labelled probe; settings: molar excess of unlabeled mutant oligo had no effect on complex; protein in a lysate after overexpression; protein details: pCDNA1/Amp expression in COS1 cells; variant of GATA probe

Sequence	binding result [1]	binding result [2]	binding result [3]
GCCGGGCAACTGATAAGGATTCCCA (double strand) [GATA probe]	binds	no binding	–
GACCGGGCAACTGCGAAGGATTCCCA (double strand) [GATA mutant]	–	–	no binding
